From PubChem BioAssay AID2685 (National Center for Advancing Translational Sciences (NCATS), 2010) come the findings set out here.

The nature of this test: qHTS Assay for Lipid Storage Modulators in Drosophila S3 Cells.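 On cell number change: cells counted by Cell Tracker Red CMTPX staining in the red channel.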 Conditions: BODIPY lipid droplet fluorescence, 18-24 h; for cell number change: measured here: cell count max response, cells fed with added oleic acid. Summed up:
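Laser-scanning cytometry quantifies lipid droplet accumulation (500–530 nm total intensity; droplet/cell object ratio) in oleic acid-fed (400 uM added) Drosophila S3 cells treated with a concentration series. 20 uM Triacsin C defined 100% inhibition.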

Setting [1] is: measured here: cell number channel AC50, cells fed with added oleic acid.
Where [2] appears, read: measured here: lipid fluorescence (Fed channel) AC50, cells fed with added oleic acid.

The list shows a part of the results. Further columns of the screen follow, without active or inactive calls. Compounds called inactive in the main read-out are mostly missing here. Potencies come from curve fits of mixed quality, noted in brackets.

The AC50 is the midpoint of the concentration-response curve, whichever way the signal moves. A low value points to activity at low concentration. For `Cc1nc(-c2ccccn2)nc(SCC(=O)c2ccc(F)cc2)c1Cl`, the AC50 was 103 nM [rising, full curve, poor fit] under setting [1] and 184 nM [rising, full curve, poor fit] under setting [2]. With `Fc1ccc(-c2cc(C(F)(F)F)nc(-n3cccn3)n2)cc1`, the cell number change worked out at 13.8%. For the same compound, the AC50 under setting [1] was 116 nM [rising, full curve, poor fit]. The AC50 under setting [2] was 366 nM [rising, full curve, poor fit]. As to `O=C(c1cccc(Cl)c1)N1CCCC(c2ccc(Cl)cc2)=N1`, the cell number change was -39.7%. The AC50 under setting [1] was 7310 nM [falling, partial curve]. Under setting [2], the AC50 was 7310 nM [falling, partial curve]. As to `Cc1ccsc1C(=O)Nc1ccc(S(=O)(=O)N2CCOCC2)cc1`, the cell number change came to 5.66%. The AC50 under setting [2] is 4.61 nM [rising, full curve, poor fit].

Regarding `Cc1csc(SCC(=O)Nc2ccccn2)n1`, the cell number change is -13.4%. For the same compound, the AC50 under setting [2] is 3260 nM [falling, single point]. Consider `COC1CCN(C(=O)c2ccc3oc(C(C)C)nc3c2)CC1`, for which the cell number change turned out to be 2.67%. As to `CCOc1ccccc1OCC(=O)OCC(=O)c1c(N)n(CC(C)C)c(=O)n(C)c1=O`, the cell number change is 21.4%. In addition, the concentration at half-maximal activity (AC50) under setting [2] is 18400 nM [rising, single point]. Take `O=C1C2ON(c3ccccc3)C(c3ccccn3)C2C(=O)N1c1ccc(Br)cc1` (configuration not stated): the cell number change was determined as 0.807%. For the same compound, the AC50 under setting [2] is 23100 nM [rising, single point]. Consider `Cc1ccccc1C(=O)NC1CC(C)(C)NC(C)(C)C1`, for which the cell number change was -7.54%. The AC50 under setting [2] was 25900 nM [falling, partial curve]. As to `COc1cc(NC(=O)CCS(=O)(=O)c2ccc3c(c2)oc(=O)n3C)cc(OC)c1`, the cell number change is -3.24%. Further, the AC50 under setting [2] was 517 nM [rising, full curve]. `CCCN(CCC)CCNc1c(N2CCN(C(=O)OCC)CC2)c(=O)c1=O`: the cell number change is 5.5%. Moreover, the AC50 under setting [2] was 731 nM [falling, full curve]. As to `COC(=O)[C@H](C)NC(=O)Nc1cccc(C)c1`, the cell number change stood at 5.72%. Further, the AC50 under setting [2] was 5.8 nM [falling, full curve, poor fit]. As for `CCOC(=O)C/C(N)=N/N(C)c1ncc(C(F)(F)F)cc1Cl`, the AC50 under setting [1] was 580 nM [falling, single point]. Regarding `NS(=O)(=O)c1ccc(NC(=O)CN2C(=O)c3ccccc3C2=O)cc1`, the cell number change is -12.3%.

As to `Cc1cc(C(=O)N/N=C2\CCCc3ccccc32)c(C)o1`, the cell number change is 3.44%. For the same compound, the AC50 under setting [2] was 7310 nM [rising, partial curve]. On to `O=S(=O)(c1ccc2nc(-c3ccccc3)[nH]c2c1)N1CCN(c2cccc(Cl)c2)CC1`, for which the cell number change stood at 28.7%.

For the compound `O=C(O)c1ccc(O)c2ncccc12`, the cell number change was -18.6%. In addition, the AC50 under setting [1] was 51.7 nM [falling, full curve, poor fit]. For the same compound, the AC50 under setting [2] was 731 nM [falling, full curve, poor fit]. Turning to `CC(C)(C)C1CCC(C(=O)OCC(=O)N2CCN(C(=O)c3ccco3)CC2)CC1` (configuration not stated), the AC50 under setting [1] is 6510 nM [rising, single point].

Turning to `O=S(=O)(c1ccccc1)c1nc(-c2ccco2)oc1Nc1ccccc1`, the cell number change was -2.74%. Turning to `COc1ccc(NC(=O)CN(CC(=O)Nc2ccc(OC)cc2)C(C)(C)CO)cc1`, the cell number change stood at 54.2%. As for `COCC(=O)Nc1ccc([N+](=O)[O-])cc1OC`, the cell number change was -83.3%. Under setting [1], the AC50 is 29100 nM [falling, single point]. Turning to `COc1ccc(-c2csc(NC3CCCCC3)n2)c(OC)c1`, the cell number change is -22.9%. Turning to `Cc1ccccc1N1C(=O)CSC1=C(C#N)C#N`, the AC50 is 4.61 nM [falling, full curve, poor fit] under setting [1] and 326 nM [falling, full curve] under setting [2]. For `Cc1cc(/C=N/n2cnnc2)c(C)n1-c1ccc(OCc2ccc(F)cc2)cc1`, the cell number change is -27.5%. In addition, the AC50 under setting [2] is 6510 nM [falling, single point]. Take `O=C(Nc1cccc(Cl)c1)C1CCCCC1`: the cell number change was -16.6%. Under setting [2], the AC50 was 146 nM [falling, full curve, poor fit]. Take `CC1(CC(=O)N/N=C/c2ccc(-c3cccc(C(F)(F)F)c3)o2)OCCO1`: the cell number change was -23.2%. Also, the AC50 under setting [1] was 461 nM [rising, partial curve, poor fit]. Further, the AC50 under setting [2] was 103 nM [rising, partial curve, poor fit]. For `c1csc(-c2ccnc3ncnn23)c1`, the cell number change was -3.62%. For the same compound, under setting [2], the AC50 is 7310 nM [rising, partial curve]. With `Cc1nc2ccccc2n1CC(O)COCC1CC=CCC1` (configuration not stated), the cell number change was -1.53%. On to `COc1ccc(S(=O)(=O)N/N=C(/C)c2ccc(Cl)cc2)cc1`, for which the cell number change was -31.4%. For the same compound, under setting [1], the AC50 was 10300 nM [falling, single point]. Besides, the AC50 under setting [2] is 580 nM [falling, full curve, poor fit]. Turning to `COc1ccc(N2CCN(CC(=O)Nc3nc4c(s3)CC(C)CC4)CC2)cc1` (configuration not stated), the cell number change was -13.9%. Further, under setting [2], the AC50 is 14600 nM [rising, single point]. On to `O=C(COc1ccc2ccccc2c1)Nc1ccc(S(=O)(=O)N2CCCCCC2)cc1`, for which the cell number change was -18.3%. For the same compound, the AC50 under setting [2] was 29100 nM [falling, single point].

`Cc1cccc(OCCn2nc(C(=O)O)c3ccccc3c2=O)c1`: the AC50 was 1030 nM [rising, partial curve] under setting [1] and 4610 nM [rising, single point] under setting [2]. For the compound `CN(C)c1ccc(NC(=O)CSc2nc(C3CC3)nc3ccccc23)cc1`, the cell number change amounted to 9.21%. The AC50 under setting [2] was 2510 nM [falling, partial curve]. As for `COc1cc(C2CC(=O)c3cnc(N4CCN(Cc5ccccc5)CC4)nc3C2)cc(OC)c1OC` (configuration not stated), the AC50 under setting [1] is 920 nM [rising, partial curve]. Take `CCOC(=O)c1cc2c(=O)n3ccccc3nc2n(Cc2ccccc2)c1=N`: the AC50 under setting [1] is 1840 nM [rising, partial curve, poor fit]. With `COc1ccc2c(c1)-c1c(sn(-c3ccccc3)c1=S)C(C)(C)N2`, the cell number change was -55%. Further, the AC50 under setting [1] was 29100 nM [falling, single point]. The AC50 under setting [2] is 29100 nM [falling, single point]. In the case of `Cc1ccc(-c2nnc(N3CCCCCC3)c3ccccc23)cc1`, the cell number change is -15.7%. Moreover, the AC50 under setting [2] is 7310 nM [falling, partial curve]. For the compound `O=C(O)CCC(=O)Nc1ccc(C(=O)OC2CCCCC2)cc1`, the cell number change amounted to 4.89%. Further, the AC50 under setting [2] is 36.6 nM [rising, single point]. With `O=c1c(-c2ccccc2)c1-c1ccccc1`, the cell number change was -49.5%. For the same compound, the AC50 under setting [1] is 20600 nM [falling, single point]. Besides, the AC50 under setting [2] is 16400 nM [falling, single point]. `Cc1nc2ccc(NS(=O)(=O)c3c(F)cc(F)cc3Br)cc2s1`: the cell number change was 22.3%. On to `Cc1ccc(S(=O)(=O)Nc2cc(=O)[nH]c(SCC(=O)Nc3cccc(C(F)(F)F)c3)n2)cc1`, for which the cell number change was found to be 1.61%.

For `Cc1ccc(OCCN2CCN(c3nc(NCc4ccco4)c4ccccc4n3)CC2)cc1`, the cell number change is -58.6%. For the same compound, under setting [1], the AC50 is 32600 nM [falling, partial curve, poor fit]. As for `COc1cccc(/C=N/NC(=O)CCNc2n[nH]c(=O)[nH]c2=O)c1OC`, the cell number change was found to be 0.637%. Moreover, the AC50 under setting [1] is 103 nM [rising, full curve, poor fit]. The AC50 under setting [2] is 29100 nM [falling, single point].

`CCOC(=O)N1CCC(Nc2c(NCCN3CCN(Cc4ccccc4)CC3)c(=O)c2=O)CC1`: the cell number change was -19.8%. For the same compound, the AC50 under setting [2] is 32600 nM [falling, single point].

As to `C=C1C(C(=O)Nc2ccc(OCC)cc2)C1C(=O)Nc1ccc(OCC)cc1` (configuration not stated), the cell number change is -1.37%. Besides, the AC50 under setting [2] was 23.1 nM [rising, full curve, poor fit]. Regarding `O=C1CN(C(=O)COC(=O)C2CC(=O)N(Cc3ccco3)C2)c2ccccc2N1` (configuration not stated), the cell number change is -6.01%. In addition, the AC50 under setting [2] was 3660 nM [falling, single point].

Consider `COc1ccc(/C=N/Nc2nc(=O)[nH]nc2C)cc1OC`, for which the cell number change was -12.7%. Further, the AC50 under setting [1] was 2590 nM [rising, single point]. Consider `Cc1ccc(NC(=O)C2CC(=O)Nc3nncn32)cc1` (configuration not stated), for which the cell number change was -45.5%. In addition, the AC50 under setting [1] is 23100 nM [falling, partial curve]. Moreover, the AC50 under setting [2] was 2060 nM [falling, partial curve, poor fit]. Take `Cc1ccc(Oc2ccc(N)cc2)cc1`: the cell number change worked out at 9.03%. Further, the AC50 under setting [1] is 651 nM [rising, partial curve, poor fit]. For the same compound, the AC50 under setting [2] was 731 nM [rising, full curve]. Consider `CC(C)(C)NC(=O)COC(=O)c1ccccc1C(=O)c1ccccc1`, for which the cell number change was 11.2%. `O=C(Nc1ccc2c(c1)OCO2)c1cnn2cccnc12`: the cell number change is -1.56%. Moreover, under setting [2], the AC50 is 2590 nM [rising, full curve]. As to `COc1ccc(N2CCN(c3ncccc3C#N)CC2)cc1`, the cell number change was found to be 13.4%. Under setting [2], the AC50 is 51.7 nM [rising, full curve, poor fit]. For the compound `CC(C)N1C(=O)CCC1C(=O)O` (configuration not stated), the cell number change was -6.39%. The AC50 under setting [2] is 731 nM [rising, single point]. On to `COC(=O)c1ccccc1S(=O)(=O)N1CCC(C(=O)OCC(=O)NC2CCCCC2C)CC1` (configuration not stated), for which the cell number change turned out to be 11%. Moreover, the AC50 under setting [1] is 1460 nM [rising, partial curve, poor fit]. Further, the AC50 under setting [2] was 130 nM [falling, full curve, poor fit]. On to `CCCc1nc2oc(C(=O)OCC)c(N)c2c2c1COC(C)(C)C2`, for which the cell number change was -9.3%. Moreover, under setting [2], the AC50 was 461 nM [rising, full curve]. Take `CCCCC(=O)NCc1ccc(F)cc1`: the cell number change is -56.5%. In addition, the half-maximal activity concentration (AC50) under setting [1] is 18400 nM [falling, single point]. Further, the AC50 under setting [2] was 29100 nM [falling, single point].

As for `Cc1cc(C(=O)CSC(C)c2nc3ccccc3c(=O)[nH]2)c(C)n1C` (configuration not stated), the cell number change was 24.2%. The AC50 under setting [2] was 16400 nM [rising, single point]. As for `CC(C)CN1C(=O)C(NC(=O)C2CC2)(C(F)(F)F)C2=C1CC(C)(C)CC2=O` (configuration not stated), the cell number change was -26.9%. Under setting [1], the AC50 is 4.11 nM [falling, full curve, poor fit]. The concentration at half-maximal activity (AC50) under setting [2] is 820 nM [falling, full curve, poor fit]. With `COCCN1C(=O)C(=O)/C(=C(/O)c2ccc(S(=O)(=O)N3CCCCC3)cc2)C1c1ccc(OC)cc1` (configuration not stated), the cell number change was found to be 28.7%. In addition, the AC50 under setting [2] was 651 nM [rising, full curve, poor fit].
